Data as given in PubChem BioAssay AID504621 (Broad Institute, 2011).
About 970 (0.31%) of roughly 310,000 compounds were called active. The shares of active, inactive and inconclusive entries below differ from those in the screen.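 The calls were made as follows: active = every replicate shows inhibition above about 80%, whatever the replicate mean (limit read from the data); inconclusive = mean inhibition reaches the set limit but some replicate falls short; inactive = the rest.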

assay: growth inhibition of PfHsp90-expressing yeast, primary screen, antimalarial PfHsp90 inhibitor project, S. cerevisiae, BacTiter-Glo luminescence, single point, set 2 (AID 504621); conditions: BacTiter-Glo ATP, 48 h, at 9.4 µM, stronger effect = higher value, yeast lacking PDR1 and PDR3 efflux regulators;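 also: yeast relying on Plasmodium falciparum Hsp90 in place of its own; 0% = DMSO neutral controls and 100% = 20 µM radicicol positive controls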

| SMILES | inhibition |
| --- | --- |
| Oc1ccc(-c2c(C3=CCCCC3)sc3ccccc23)cc1 | inconclusive: 143% |
| O=C(/C=C/c1cccnc1)c1ccccc1O | inactive: -35.1% |
| COc1ccc(-c2cc3nc(C)n(N)c(=O)c3s2)cc1 | inconclusive: 76.2% |
| Cc1cccc(-c2noc(-c3ccc4c(c3)OCO4)n2)c1 | inactive: -27.1% |
| Oc1ccc(/C=C/c2ccc3cccc(O)c3n2)cc1Br | active: 108% |
| N#C/C(=C(/O)c1ccc(Cl)c([N+](=O)[O-])c1)c1nc2ccccc2[nH]1 | inactive: 3.76% |
| CCCOc1ccc(N2C(=O)CC(N3CCCC(C(=O)N4CCCC4)C3)C2=O)cc1 (stereo unspecified) | inconclusive: 81.5% |
| O=C(COC(=O)c1ccc([N+](=O)[O-])o1)Nc1ccc2c(c1)OCO2 | inconclusive: 78.9% |
| O=[N+]([O-])/C=C/c1cn(Cc2ccc(Cl)cc2)c2ccccc12 | inconclusive: 80.8% |
| Cc1ccccc1CS(=O)(=O)c1nnc([C@H](Cc2ccccc2)NC(=O)OC(C)(C)C)o1 | active: 109% |
| Cc1cc([N+](=O)[O-])ccc1-c1ccc(C2Nc3ccccc3C(=O)N2O)o1 (stereo unspecified) | inconclusive: 80.2% |
| CC(C)c1ccc(OCC(=O)NNC(=S)NC(=O)C2CC2)cc1 | inconclusive: 85.8% |
| CC(=O)N1CCN(c2ccc(OC[C@H]3CO[C@](Cn4ccnc4)(c4ccc(Cl)cc4Cl)O3)cc2)CC1 | active: 104% |
| O=C(C=Cc1ccccc1O)c1ccccc1O | inconclusive: 76.1% |
| C=CCN1C(=O)c2oc3ccccc3c(=O)c2C1c1ccc(O)c(OC)c1 (stereo unspecified) | inactive: 3.16% |
| CC(=O)c1ccc(NC(=O)CSc2cn[nH]n2)cc1 | inactive: 13.2% |
| CC(=O)N(C(C)=O)C1=C(C#N)C2(CCCCC2)Cc2ccccc21 | inactive: -15.2% |
| CC1=C(C)CC2C(C1)C(=O)c1ccc(Br)cc1S2(=O)=O (stereo unspecified) | inconclusive: 101% |
| COc1cc(OC)c(-c2c3cc(O)c(=O)cc-3oc3cc(O)c(O)cc23)cc1OC | inconclusive: 75.1% |
| COc1ccccc1C(=O)NNC(=S)NC(=O)c1cccs1 | active: 91.7% |
| Cc1ccc(N=N/C(=C\O)C(=O)c2ccc(Cl)cc2)cc1 | active: 107% |
| COc1ccc(N(C(C)C(=O)N/N=C/c2cccnc2)S(C)(=O)=O)cc1 (stereo unspecified) | inactive: 7.88% |
| Cc1c(C(=O)O)c(O)cc2c1C(=O)c1c(O)c([C@@H]3O[C@H](CO)[C@@H](O)[C@H](O)[C@H]3O)c(O)c(O)c1C2=O | inconclusive: 78.5% |

| SMILES | inhibition |
| --- | --- |
| O=C(Nc1ccc(OC(F)(F)C(F)F)c(NC(=O)c2ccc(F)cc2)c1)c1ccc(F)cc1 | inconclusive: 76.8% |
| COC(=O)/C(=C(/F)Sc1cc(C)c(O)c(C)c1)C(F)(F)F | inactive: -29% |
| CCc1ccc(OCC(=O)c2c(O)c3ccccc3oc2=O)cc1 | inactive: -10.4% |
| O=C(Nc1nccs1)C(Br)C(Br)c1ccccc1 (stereo unspecified) | inconclusive: 89.4% |
| CC1(C)Cc2c(ccc3ccccc23)C(=O)N1 | inconclusive: 75.3% |
| Cc1cc(N2C(=O)C=CC2=O)c([N+](=O)[O-])cc1C | active: 117% |
| CC(=O)NC(c1ccc(Cl)cc1)c1ccc2cccnc2c1O (stereo unspecified) | active: 114% |
| COc1ccc(CN2CCN(C(=O)c3cccc4ccccc34)CC2)c(OC)c1OC | inactive: 9.36% |
| COc1cc(/C=C/C(=O)OCC(=O)NCCN2C(=O)CSC2=O)ccc1OCC#N | inactive: 14.1% |
| O=C(/C=C/NCc1cccnc1)c1ccc(-c2ccccc2)cc1 | inconclusive: 87% |
| COc1cccc(/C=C/c2ccc3cccc(O)c3n2)c1 | active: 103% |
| CC(C)Oc1ccccc1OCCCOc1cccc2cccnc12 | inactive: 25.6% |
| CN(C)C(=O)CCSc1nnc(-c2ccco2)o1 | inactive: 21.9% |
| COc1ccc(CS(=O)/C(Cl)=C(/Cl)C(=O)Nc2ccc(OC)nc2)cc1 (stereo unspecified) | inconclusive: 75.8% |
| Cc1ccc(S(=O)(=O)Nc2ccccc2C(=O)Nc2nc(-c3ccc(F)cc3)cs2)cc1 | inconclusive: 76.9% |
| COc1ccc(-c2sc3ccc(OC)cc3c2-c2ccc(O)cc2)cc1 | inconclusive: 81.5% |
| CN(C(=O)c1cccc(NC(=O)C2CCCN(C(=O)OC(C)(C)C)C2)c1)C1CCCC1 (stereo unspecified) | inconclusive: 75% |
| O=C(c1cc2ccccc2o1)N1CCN(c2ccccc2Cl)CC1 | inconclusive: 80.5% |
| O=C1NC(=Nc2ccccc2Cl)S/C1=C\c1cccc([N+](=O)[O-])c1 | inconclusive: 84.1% |
| Cc1cc(NC(c2ccc(Cl)cc2)c2ccc3cccnc3c2O)no1 (stereo unspecified) | active: 101% |
| CC1=CC(C)(C)N(C(=O)CSc2nnc(-c3ccccc3)o2)c2ccc(C)cc21 | inconclusive: 82.2% |
| C=C(C)COc1ccc(-c2[nH]ncc2Oc2ccc(OC)cc2)c(O)c1 | inconclusive: 85.9% |
| Cc1ccccc1CS(=O)(=O)c1nnc([C@H](CC(C)C)NC(=O)OC(C)(C)C)o1 | inconclusive: 76.9% |

In the list so far, these contain an aryl thioether with sulfur outside any ring:

| SMILES | inhibition |
| --- | --- |
| CC(=O)c1ccc(NC(=O)CSc2cn[nH]n2)cc1 | inactive: 13.2% |
| COC(=O)/C(=C(/F)Sc1cc(C)c(O)c(C)c1)C(F)(F)F | inactive: -29% |
| CN(C)C(=O)CCSc1nnc(-c2ccco2)o1 | inactive: 21.9% |
| CC1=CC(C)(C)N(C(=O)CSc2nnc(-c3ccccc3)o2)c2ccc(C)cc21 | inconclusive: 82.2% |

Later entries:

| SMILES | inhibition |
| --- | --- |
| CCOC(=O)c1ccccc1NC(=O)Cn1cnc2c(oc3ccccc32)c1=O | inconclusive: 76.1% |
| Cc1cc(Cl)n2c(nc3cc(F)c(F)cc32)c1C#N | inconclusive: 83.3% |
| COC1=C(c2ccccc2)C(=O)c2ccccc2C1=O | inconclusive: 85% |
| O=C(C[n+]1ccc(C(=O)NCc2ccccc2)cc1)c1ccc(OC(F)F)cc1 | inactive: 12.4% |
| CC(C)(C)c1ccc(COc2ccsc2C(=O)O)cc1 | inactive: 29.2% |
| COc1cccc(OC)c1C(=O)Nc1cccc(-c2ccc3nncn3n2)c1 | inactive: 0.369% |
| CC(=O)O[C@H]1[C@@H](O)[C@H](O)[C@H](Oc2c(O)c(C)c3c4c2[C@@H](C)CC[C@@H]4[C@@H](C)C[C@H]3C=C(C)C)O[C@H]1C | inconclusive: 83% |
| O=C(Nc1nc(-c2ccc(F)cc2)cs1)C1CCCO1 (stereo unspecified) | inactive: 17.4% |
| COc1ccccc1-c1cn[nH]c1-c1ccc(OCc2ccccc2F)cc1O | inconclusive: 78.5% |
| CC(=O)NC(c1ccccc1)c1cc(Cl)c2cccnc2c1O (stereo unspecified) | active: 107% |
| NC(=O)c1ccc(N=Cc2ccc([N+](=O)[O-])s2)cc1 | active: 104% |
| CN(C)/C=C/C(=O)c1ccc2noc(-c3cccc(F)c3)c2c1 | active: 107% |
| COc1cccc2sc(Nc3nc(-c4ccccn4)cs3)nc12 | active: 107% |
| COc1ccc(N2CCN(c3c(S(=O)(=O)c4ccccc4)cnc4ccc(OC)cc34)CC2)cc1 | active: 104% |
| CC1CCN(c2nc(Cl)nc(Nc3ccc([N+](=O)[O-])cc3)n2)CC1 | active: 98.4% |
| Cc1cc(Cl)ccc1N=c1ssnc1Cl | inconclusive: 76.4% |
| CC(C)CCN1CCN(C2CCN(c3ccccc3)CC2)CC1CCO (stereo unspecified) | inactive: 0.073% |
| O=C(COC(=O)c1ccc([N+](=O)[O-])o1)Nc1ncc(Cl)cc1Cl | inconclusive: 85.7% |
| CC(C)(C)C(=O)C(Cc1ccccc1Cl)n1cncn1 (stereo unspecified) | inconclusive: 75.8% |
| COc1ccc(-c2sc3ccccc3c2-c2ccc(O)cc2)cc1 | inconclusive: 81.5% |
| CCCCCCOC(=O)C(C#N)c1nc2ccccc2nc1N1CCN(C)CC1 (stereo unspecified) | inactive: 5.49% |
| O=C1OC(c2ccccc2)(c2cc(Br)c(O)c(Br)c2)c2ccccc21 (stereo unspecified) | active: 115% |
| Cc1cccc(NC(=S)N=Nc2c(O)[nH]c3ccccc23)c1 | inactive: -50.6% |

| SMILES | inhibition |
| --- | --- |
| O=C(Oc1ccc(N(C(=O)c2ccncc2)S(=O)(=O)c2ccc(Cl)cc2)cc1)c1ccncc1 | inconclusive: 76.3% |
| Cn1c(=O)c2c(nc(NCCNC(=O)c3ccco3)n2Cc2ccc(Cl)cc2Cl)n(C)c1=O | inactive: -1.17% |
| C=CC(=O)NC(C)(C)Cc1ccccc1 | inconclusive: 76.1% |
| Cc1ccccc1OCC(=O)NNC(=S)NC(=O)c1ccco1 | inconclusive: 79.3% |
| COc1ccc(-c2csc(Nc3ccccc3)[n+]2CC(O)c2ccc([N+](=O)[O-])cc2)cc1 (stereo unspecified) | inconclusive: 78.9% |
| CCC(OC(=O)c1cccs1)C(=O)NCc1ccco1 (stereo unspecified) | inconclusive: 75.1% |
| O=C(c1ccc([N+](=O)[O-])o1)N1CCc2ccccc2C1 | inconclusive: 76.8% |
| Cc1cc(C)cc(OCC(=O)NNC(=S)NC(=O)C2CC2)c1 | inconclusive: 76% |
| O=C(Nc1ccccc1)c1sccc1Oc1ccc([N+](=O)[O-])cc1F | inactive: -35% |
| CCOC(=O)c1ccc(NC(=O)CC2OCCN(CC)C2=O)cc1 (stereo unspecified) | inconclusive: 93% |
| CCOc1ccc(N=Cc2c(C)[nH]n(-c3nc4ccccc4[nH]3)c2=O)cc1 | inconclusive: 75.9% |
| N#Cc1ccc(N=c2ssnc2Cl)cc1 | inconclusive: 103% |
| O=[N+]([O-])c1ccc(CSc2ccc(S(=O)(=O)N3CCOCC3)cn2)cc1 | inactive: -6.03% |
| CSc1ccc(S(=O)(=O)NC2CC3CCC2C3)cc1 (stereo unspecified) | inconclusive: 90.9% |
| O=C(O)CCC(=O)Nc1ccc(F)cc1 | inconclusive: 75.4% |
| O=C(CSc1nnc(-c2cccs2)n1CC1CCCO1)c1cc2ccccc2o1 (stereo unspecified) | inconclusive: 79.3% |
| Cc1c(C(=O)Nc2nc(-c3ccccn3)cs2)oc2ccccc12 | inconclusive: 82.1% |
| Cc1cc(C)c(C#N)c(Cl)n1 | inactive: -11.4% |
| CCN(CC)S(=O)(=O)c1cc(OC)ccc1N=Nc1ccc(O)c2ncccc12 | inconclusive: 92.6% |
| COc1ccc(/C=C/c2ccncc2)cc1OC | inactive: 0.692% |
| CC(C)(C)c1ccc(NC(=O)COC(=O)c2ccc([N+](=O)[O-])s2)cc1 | active: 109% |
| Cc1ccnc(N/C=C/C(=O)c2ccc(Br)cc2)c1 | inactive: -21% |
